{"sequences": {"note": "Protein sequences, listed by entry. Tags and fused reporters are not part of them.", "UniProt Q0JBA9, entry or part of it": "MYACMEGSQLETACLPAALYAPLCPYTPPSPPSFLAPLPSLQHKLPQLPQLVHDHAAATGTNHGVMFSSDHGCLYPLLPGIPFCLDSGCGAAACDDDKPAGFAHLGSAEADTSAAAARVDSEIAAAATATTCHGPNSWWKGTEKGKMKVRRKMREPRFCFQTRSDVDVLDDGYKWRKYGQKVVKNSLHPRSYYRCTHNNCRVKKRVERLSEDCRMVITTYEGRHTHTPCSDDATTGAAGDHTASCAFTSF"}, "source": "paper PMC7819943", "about": "“Rice protein-binding microarrays: a tool to detect cis-acting elements near promoter regions in rice”", "note": "The list shows a part of the results."}
{"target": "OsWRKY34 (Oryza sativa, UniProt Q0JBA9 1-250)", "test": "protein-binding microarray (RPBM); PBS, 2% BSA, 51.3 ng/ul salmon testes DNA, 50 uM zinc acetate, 200 nM TF, 25 C, 1 h; high values mean tight binding", "conditions": "protein: recombinant; tags: N-terminal polyhistidine and DsRed monomer fusion (pET32a); label: CyDye5-dUTP incorporated in the synthesized complementary strand; 3' TTTTT single-stranded linker to array surface; dsDNA, one strand shown", "how_it_was_run": "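Binding signal here means per-feature fluorescence intensity in arbitrary units. The values were read on an Axon 4000B scanner after a custom Agilent array, double-stranded by primer extension with Cy5-dUTP, was incubated with 200 nM protein at 25 °C for 1 h in PBS with 2% BSA, salmon testes DNA and 50 µM zinc acetate, then washed. The proteins were transcription factors with an N-terminal polyhistidine tag and DsRed, expressed in E. coli BL21-CodonPlus and purified on Ni–NTA.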"}
{"sequence": "CTTTAGTCAAAGTCAAACTACTCTAAGTTTGACTAACTCTCGGAGTCACCTAGTGCAG", "binding signal": "13500 fluorescence intensity (a.u.)"}
{"sequence": "GGCTATCGTTGGGGATGCAACACCTCAACCTGTCCAGCAACGGAGTCACCTAGTGCAG", "binding signal": "8340 fluorescence intensity (a.u.)"}
{"sequence": "CCGTCGAGTCCAACCCGCCGCCGGTCCGCCGCCATCCCGCCGGAGTCACCTAGTGCAG", "binding signal": "8220 fluorescence intensity (a.u.)"}
{"sequence": "GCCTTGTTTAGTTGGGGAAAATTTTTGGGTTTGATTATCACGGAGTCACCTAGTGCAG", "binding signal": "10800 fluorescence intensity (a.u.)"}
{"sequence": "TCCAAACTATTGAGTCATCCTATGTAACTTTTTTTTTGTTCGGAGTCACCTAGTGCAG", "binding signal": "9080 fluorescence intensity (a.u.)"}
{"sequence": "CATCTCAGTGTGTTGTGGCAAATCTATTTCGTTTTTCTAACGGAGTCACCTAGTGCAG", "binding signal": "8400 fluorescence intensity (a.u.)"}
{"sequence": "TGGATCTTGTGTACGATTTCTGTACTTCAATACATATCTTCGGAGTCACCTAGTGCAG", "binding signal": "8192 fluorescence intensity (a.u.)"}
{"sequence": "ACCGTGTGTCCGTTTGACTCCGTTCAACTTCCAAAATTCCCGGAGTCACCTAGTGCAG", "binding signal": "8320 fluorescence intensity (a.u.)"}
{"sequence": "ACCGCGTCGGCGTCGCCGCCGCCACCGCCGCCCGCCACCTCGGAGTCACCTAGTGCAG", "binding signal": "8050 fluorescence intensity (a.u.)"}
{"sequence": "CATATATTTCTTCTCGCCTACATGTGAGTCCCGCATTACTCGGAGTCACCTAGTGCAG", "binding signal": "9110 fluorescence intensity (a.u.)"}
{"sequence": "AATCACCATCATCGCTGTTTGGGAGGGTCTGCCTGGCTTACGGAGTCACCTAGTGCAG", "binding signal": "13100 fluorescence intensity (a.u.)"}
{"sequence": "CGTATAAGCGTGGTGTGGTTGTTTATTTTCTTTTTCCTGACGGAGTCACCTAGTGCAG", "binding signal": "10300 fluorescence intensity (a.u.)"}
{"sequence": "ATGGGCCTTCATCAGTTTGATGTTTGCATATAATATTGCCCGGAGTCACCTAGTGCAG", "binding signal": "9310 fluorescence intensity (a.u.)"}
{"sequence": "AGAACCCTACATCTCATCTTCCACCACAGCAATCTCTCAACGGAGTCACCTAGTGCAG", "binding signal": "11100 fluorescence intensity (a.u.)"}
{"sequence": "TAATTTTCCATTGTTTTTCTCCATGTATGTGGGCTACCTTCGGAGTCACCTAGTGCAG", "binding signal": "10000 fluorescence intensity (a.u.)"}
{"sequence": "GACGCATGGCAATGTACATATTTGCTGCCCGTACCTTTCGCGGAGTCACCTAGTGCAG", "binding signal": "8060 fluorescence intensity (a.u.)"}
{"sequence": "GTATAAAAATCCTCGTCTCTGTCTCTTTTACTACAATCTTCGGAGTCACCTAGTGCAG", "binding signal": "8120 fluorescence intensity (a.u.)"}
{"sequence": "GATCGAAACATCACAAAATCATATCTTGTCGCTTTCTCAACGGAGTCACCTAGTGCAG", "binding signal": "9210 fluorescence intensity (a.u.)"}
{"sequence": "TATGTTCGAAATTTGCAAGTATTGTCCTCTTCATAAACTCCGGAGTCACCTAGTGCAG", "binding signal": "8070 fluorescence intensity (a.u.)"}
{"sequence": "GTACCCATGCTATCATCGGTTCCATGCATCTCATCCTTCACGGAGTCACCTAGTGCAG", "binding signal": "11800 fluorescence intensity (a.u.)"}
{"sequence": "GTCTTCTCTTTTTATCTCCTCAATATGTGTTTATAGCTGGCGGAGTCACCTAGTGCAG", "binding signal": "8340 fluorescence intensity (a.u.)"}
{"sequence": "CAGTCAGTCAGTAGGTTCCCAGAATTTTCTCCCTGCAAACCGGAGTCACCTAGTGCAG", "binding signal": "8050 fluorescence intensity (a.u.)"}
{"sequence": "GTTGTCTTGCTGAGTTGGTTATATTTTGCAGAATATTCGGCGGAGTCACCTAGTGCAG", "binding signal": "11000 fluorescence intensity (a.u.)"}
{"sequence": "AACTTCTACTCTTATTTTTCACGTGCACGCTTTAACTTTTCGGAGTCACCTAGTGCAG", "binding signal": "13100 fluorescence intensity (a.u.)"}
{"sequence": "ATAATGTCGTTGATTTTTACATACCTTTAAGTATTTACCTCGGAGTCACCTAGTGCAG", "binding signal": "8030 fluorescence intensity (a.u.)"}
{"sequence": "ATACATATTTTTTTCTCTATTTCTGCCCAACATGTTTTTCCGGAGTCACCTAGTGCAG", "binding signal": "8950 fluorescence intensity (a.u.)"}
{"sequence": "ACACGGCCACCCGCATCCGCACCACCCGCAAGCCGCGACGCGGAGTCACCTAGTGCAG", "binding signal": "9450 fluorescence intensity (a.u.)"}
{"sequence": "TCCAACGGTTACTGTCGCTTTAATATTCGTGCGTGGGGTTCGGAGTCACCTAGTGCAG", "binding signal": "8820 fluorescence intensity (a.u.)"}
{"sequence": "TGGAGGCCGTGTATAGTTTGACCATTTCTTATATTGTAGACGGAGTCACCTAGTGCAG", "binding signal": "8510 fluorescence intensity (a.u.)"}
{"sequence": "ATTAGTCACACATAACTATTGATGTTTTATTATCTAATATCGGAGTCACCTAGTGCAG", "binding signal": "8100 fluorescence intensity (a.u.)"}
{"sequence": "TTCCCGAATTCCCAGACCAAATCTCCTCGCTTTTTGCTTCCGGAGTCACCTAGTGCAG", "binding signal": "10500 fluorescence intensity (a.u.)"}
{"sequence": "CTCTAGAAAGTTCTAGATCTTCCGTGCGTGGTGGGCGGGTCGGAGTCACCTAGTGCAG", "binding signal": "11100 fluorescence intensity (a.u.)"}
{"sequence": "GGACCGGTGATGGATTTTACTCTTCTAAAATCATTGCTTACGGAGTCACCTAGTGCAG", "binding signal": "8220 fluorescence intensity (a.u.)"}
{"sequence": "CAATATTTATCTACCGTTCCTTGCTCGCCTGCTTTGCTTTCGGAGTCACCTAGTGCAG", "binding signal": "8550 fluorescence intensity (a.u.)"}
{"sequence": "CTCCTCTCCTTTAATTCGGCCCCGCGCCGCCCGCTTCACCCGGAGTCACCTAGTGCAG", "binding signal": "8150 fluorescence intensity (a.u.)"}
{"sequence": "CCTAATTTATTGTTGTACATGTTGCTAATATTTTTTTTATCGGAGTCACCTAGTGCAG", "binding signal": "11300 fluorescence intensity (a.u.)"}
{"sequence": "CCTCTAGCTCTTGCATCGTGTCGTTTCTTTAGCTGCGTGTCGGAGTCACCTAGTGCAG", "binding signal": "12100 fluorescence intensity (a.u.)"}
{"sequence": "TCGCGCTCGGCTTCGCGCCCTTCGTTCTCCGCCTCCTTTGCGGAGTCACCTAGTGCAG", "binding signal": "9180 fluorescence intensity (a.u.)"}
{"sequence": "GAAAATTTTCCAATTCACTGTTGCAATATAACTGTAATAACGGAGTCACCTAGTGCAG", "binding signal": "8050 fluorescence intensity (a.u.)"}
{"sequence": "CAACTCACTTATTTCTATTGTGCGCGCATGCTTTTTAAATCGGAGTCACCTAGTGCAG", "binding signal": "8300 fluorescence intensity (a.u.)"}
{"sequence": "TGTCGCCATCGTATCACCGTCGCGTCGCCATCCCGTCGCCCGGAGTCACCTAGTGCAG", "binding signal": "8070 fluorescence intensity (a.u.)"}
{"sequence": "TGCCGTTGCTTACACGCGCACCAATTGACACCTACAGTAACGGAGTCACCTAGTGCAG", "binding signal": "11000 fluorescence intensity (a.u.)"}
